Out of some 31,000 sequences screened, about 1,400 (4.5%) were called active.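 How the source made its calls: active means median seed-adjusted z-score above 1 or below -1; inactive means the rest.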 The list shows a part of the results.

A short description of the assay: Novel Modifiers of Survival Motor Neuron (SMN) Protein: Gene Identification via Genome-wide siRNA Screen.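 Further: luminescence tracks full-length SMN protein made from the SMN2 reporter.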 The conditions noted are these: HEK293T SMN2-luciferase reporter, siRNA knockdown, 72 h; actives lie on both sides. Summed up: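 Luciferase signal, proportional to full-length SMN made from an SMN2 cDNA reporter in stable HEK293T cells, was read 72 h after siRNA reverse transfection. Values were expressed as MAD scores after non-targeting-control normalization and log10 conversion; seed analysis flagged off-targets.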
For orientation: In a reporter assay the amount or activity of a reporter protein is the signal.
In the case of CUAUAUGGAUAUAACUUCUTT against TBX18, the median seed-adjusted z-score is inactive: 0.424. On to CGUCAGAUCUGAACAAGAATT against CHST4, for which the median seed-adjusted z-score was inactive: 0.349. CGACUCUGACACCACCAUATT against GOSR2: the median seed-adjusted z-score is active: -1.25. For the sequence GACUGUUCGUUUCCCAGAUTT against CHRNA7, the median seed-adjusted z-score was inactive: -0.485. With CCAAGUUAGAUAUUCCAAATT against ARPC1A, the median seed-adjusted z-score is inactive: -0.433. With GCUUUUAACCAUCCUGCAATT against ZNF486 the figure was inactive: 0.324; with UGAACUACAUUGUACCCAUTT against BPI, inactive: 0; with GCAAUUACCUAACUUCUGUTT against RNASE10, inactive: -0.109. For GGAUUUACAGUGUGAGAUATT against ZNF573, the median seed-adjusted z-score is inactive: -0.169. In the case of CUCUCAUCUUGGUUGGAAATT against RERG, the median seed-adjusted z-score was inactive: 0.59. Regarding AGGACUGCCUGAUUGACAATT against RXRA, the median seed-adjusted z-score was inactive: 0.304. For the sequence CACUCACUGUUCCUAUCAATT against STAMBPL1, the median seed-adjusted z-score was inactive: 0.13. The same measure for GGUUAAAGCUGAAGCUCAATT against XRCC6: inactive: 0. With CAAGAGGGUUUUUACCAUATT against SEC11C the figure was inactive: 0.508.

In the case of ACUGUUUCCUCACCAAGAATT against PTAFR, the median seed-adjusted z-score is inactive: 0.302. Turning to GGACAAAUCUUUGUGCAUUTT against PES1, the median seed-adjusted z-score was inactive: 0.44.

With GCCUAGUGUUCAUCCUGUATT against SLC6A2, the median seed-adjusted z-score is inactive: 0.

On to CCAUUUGAAUGUUCGUAAUTT against FDFT1, for which the median seed-adjusted z-score is inactive: -0.143. The same measure for AGACUACGGUGGACAAACUTT against SLC8A3: inactive: -0.0434; for GGAAUAGAGAAGCUCCUAATT against NID2: inactive: 0.283. On to CAACCUACUUAGAUGACAATT against SLCO5A1, for which the median seed-adjusted z-score was inactive: 0.272. Turning to GUGGUCCUGUGACUGCUGATT against KCNK7, the median seed-adjusted z-score was inactive: 0.0523. Consider CAUGAACCCUUGGUAGAUATT against TBRG1, for which the median seed-adjusted z-score was active: -1.47.

For CCAUUACAGAGGGAGUUCATT against NRBP1, the median seed-adjusted z-score is active: -1.13. For the sequence CAUUUCACCCAAAACCUUUTT against ZNF718, the median seed-adjusted z-score was inactive: 0.0564. With GCAUUGUGAAAGUAAUAGATT against UTX the figure was inactive: 0.157. The same measure for GAAGUCAACUUUGACCAUUTT against STK32B: inactive: 0.683; for CAAUAUGACGAGCUCCAAATT against RNASE9: inactive: 0.188; for UCCUCUCUCUGGAUCUUAATT against TRIM7: inactive: -0.845.

On to GCUUUAAGUUUAAGGAGUATT against PIP4K2B, for which the median seed-adjusted z-score was inactive: 0.17. Regarding GAAUGUCCCUGGAGUACUATT against DUSP13, the median seed-adjusted z-score was inactive: -0.772. For the sequence GCAACGAAAUGAACCUCUUTT against PCDH10, the median seed-adjusted z-score was inactive: -0.488. With UCUUCUCCCUGAUAAAGUATT against SLC6A13 the figure was inactive: 0.267; with GCAAGCUAUUGCUAACUAUTT against ZNF416, inactive: 0.668; with GCUACUUAAUCACCACCGATT against NAGK, inactive: 0.446. The same measure for GCACGGAAAUUCUACAAGATT against ABCA4: active: -1.09; for GGAUUCUGUUCCUUAGGUUTT against BSG: inactive: 0.211; for GAUUACUACUUGACGAAGATT against TRIM14: inactive: -0.0636. The same measure for GCGGAACACGAAGAAGUAATT against TMPRSS11E: inactive: 0.0512.

On to GAACUGCAAUGUUUGCGAUTT against ZZEF1, for which the median seed-adjusted z-score is inactive: 0.167.

For the sequence CAGUCUUUAUGCAAUGGAATT against TYR, the median seed-adjusted z-score was inactive: 0.131. Consider GAAGUUUACCAAAUUCGCATT against GPR137C, for which the median seed-adjusted z-score was inactive: -0.405. With CAGCUGAAAUCGAUGAAGATT against NACA the figure was inactive: 0.117; with CUAUUACUACUACAACUGATT against HTRA4, inactive: 0.838. For CGAUGCUUGUCAGUCCCAATT against NOTCH4, the median seed-adjusted z-score was inactive: -0.384. CAUUCGUCCGGGACUAAUATT against RBM16: the median seed-adjusted z-score was inactive: 0.279. The same measure for GGCUGUACAUUGAGCAGAATT against GPER: inactive: 0.157; for CCAAAGCUCAGAGUAUUUATT against LCOR: inactive: -0.0435. With GAUUGUAUCCAGAAUCUCATT against ENPP1 the figure was inactive: -0.273. For the sequence CGGCCGAAGUAGUAAAAGATT against ADA, the median seed-adjusted z-score was inactive: -0.242.

Take UCAGGACCCUGUACACCCATT against GPS1: the median seed-adjusted z-score is inactive: 0.205. The same measure for GAUCAUACCUUGAAAAUUATT against ROBO1: inactive: -0.096; for GGAUCGAGUUUGAUAACGATT against ITGA6: inactive: -0.224. For GGAUGAUAGAGAACGAAGATT against PARD3, the median seed-adjusted z-score is inactive: -0.116. As to CCGCUUGAGUUCAACAAGATT against C10orf2, the median seed-adjusted z-score is inactive: 0.31. With AGAUGCUGCUUGACAUAAATT against KRT15, the median seed-adjusted z-score was inactive: 0.756. The same measure for CCAUCAACACUGGUAAGAATT against KIF11: inactive: -0.381; for CCCAUUUCAUGAGUCGCAATT against INO80: inactive: 0.0546.

Regarding ACACGGAUAUUUACAGAGATT against SLC26A6, the median seed-adjusted z-score was inactive: 0.316. Consider GAGUAAAGGGUGUUACUAUTT against YEATS4, for which the median seed-adjusted z-score was inactive: 0.905. The same measure for GGUAAGAGCUUUAAUCAGATT against ZNF235: inactive: 0.348.

Regarding CUAGCAACAUGGACAUAUUTT against STS, the median seed-adjusted z-score is inactive: -0.392. Consider AGAUGUCGCUGUGGACUUUTT against ZNF317, for which the median seed-adjusted z-score is inactive: 0.087.

On to GGAUAACAUCAUACCGUUUTT against SLC12A6, for which the median seed-adjusted z-score is inactive: 0.155.

As to CAAGGAGCAUAAGUACAAATT against F12, the median seed-adjusted z-score is inactive: 0.345. For the sequence GACAAGAUGCUGAAACAAATT against GSG2, the median seed-adjusted z-score was inactive: 0.804.

Consider UGGAAGACCUGAAAACAGATT against PMM1, for which the median seed-adjusted z-score is inactive: -0.597.

For GCGCCGAUAUAAUGCUCUUTT against PATZ1, the median seed-adjusted z-score was inactive: -0.57. As for CGAUGGAUCUGAUGGAGCATT against APOA5, the median seed-adjusted z-score is inactive: -0.791.

For the origin of these results see PubChem BioAssay AID1347426 (Functional Genomics Laboratory (NCATS/FGL), 2020).
